{
  "sequences": {"note": "Amino acid sequences for entries named in this document (tags omitted). A change or cut given only in a name is not applied to a line headed by its entry.", "UniProt Q9Y450, whole entry, looked up": "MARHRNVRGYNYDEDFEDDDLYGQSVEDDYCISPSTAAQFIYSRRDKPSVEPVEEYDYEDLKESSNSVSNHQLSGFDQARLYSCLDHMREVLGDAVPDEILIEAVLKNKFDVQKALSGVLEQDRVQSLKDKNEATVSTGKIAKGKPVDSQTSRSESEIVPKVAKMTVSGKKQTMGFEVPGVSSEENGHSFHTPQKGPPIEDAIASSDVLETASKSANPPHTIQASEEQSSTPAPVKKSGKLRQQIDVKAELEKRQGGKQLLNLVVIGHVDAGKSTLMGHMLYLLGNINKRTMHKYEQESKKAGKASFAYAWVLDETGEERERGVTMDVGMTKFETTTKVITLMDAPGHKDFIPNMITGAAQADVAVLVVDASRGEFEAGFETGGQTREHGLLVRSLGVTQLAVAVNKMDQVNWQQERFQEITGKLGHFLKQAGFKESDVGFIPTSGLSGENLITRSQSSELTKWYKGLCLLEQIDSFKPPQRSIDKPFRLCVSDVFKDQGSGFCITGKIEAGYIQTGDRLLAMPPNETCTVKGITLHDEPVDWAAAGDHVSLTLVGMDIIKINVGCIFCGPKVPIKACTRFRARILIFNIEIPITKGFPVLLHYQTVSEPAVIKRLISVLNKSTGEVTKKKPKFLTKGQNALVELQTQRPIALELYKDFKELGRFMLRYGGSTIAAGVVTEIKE", "UniProt P42694": "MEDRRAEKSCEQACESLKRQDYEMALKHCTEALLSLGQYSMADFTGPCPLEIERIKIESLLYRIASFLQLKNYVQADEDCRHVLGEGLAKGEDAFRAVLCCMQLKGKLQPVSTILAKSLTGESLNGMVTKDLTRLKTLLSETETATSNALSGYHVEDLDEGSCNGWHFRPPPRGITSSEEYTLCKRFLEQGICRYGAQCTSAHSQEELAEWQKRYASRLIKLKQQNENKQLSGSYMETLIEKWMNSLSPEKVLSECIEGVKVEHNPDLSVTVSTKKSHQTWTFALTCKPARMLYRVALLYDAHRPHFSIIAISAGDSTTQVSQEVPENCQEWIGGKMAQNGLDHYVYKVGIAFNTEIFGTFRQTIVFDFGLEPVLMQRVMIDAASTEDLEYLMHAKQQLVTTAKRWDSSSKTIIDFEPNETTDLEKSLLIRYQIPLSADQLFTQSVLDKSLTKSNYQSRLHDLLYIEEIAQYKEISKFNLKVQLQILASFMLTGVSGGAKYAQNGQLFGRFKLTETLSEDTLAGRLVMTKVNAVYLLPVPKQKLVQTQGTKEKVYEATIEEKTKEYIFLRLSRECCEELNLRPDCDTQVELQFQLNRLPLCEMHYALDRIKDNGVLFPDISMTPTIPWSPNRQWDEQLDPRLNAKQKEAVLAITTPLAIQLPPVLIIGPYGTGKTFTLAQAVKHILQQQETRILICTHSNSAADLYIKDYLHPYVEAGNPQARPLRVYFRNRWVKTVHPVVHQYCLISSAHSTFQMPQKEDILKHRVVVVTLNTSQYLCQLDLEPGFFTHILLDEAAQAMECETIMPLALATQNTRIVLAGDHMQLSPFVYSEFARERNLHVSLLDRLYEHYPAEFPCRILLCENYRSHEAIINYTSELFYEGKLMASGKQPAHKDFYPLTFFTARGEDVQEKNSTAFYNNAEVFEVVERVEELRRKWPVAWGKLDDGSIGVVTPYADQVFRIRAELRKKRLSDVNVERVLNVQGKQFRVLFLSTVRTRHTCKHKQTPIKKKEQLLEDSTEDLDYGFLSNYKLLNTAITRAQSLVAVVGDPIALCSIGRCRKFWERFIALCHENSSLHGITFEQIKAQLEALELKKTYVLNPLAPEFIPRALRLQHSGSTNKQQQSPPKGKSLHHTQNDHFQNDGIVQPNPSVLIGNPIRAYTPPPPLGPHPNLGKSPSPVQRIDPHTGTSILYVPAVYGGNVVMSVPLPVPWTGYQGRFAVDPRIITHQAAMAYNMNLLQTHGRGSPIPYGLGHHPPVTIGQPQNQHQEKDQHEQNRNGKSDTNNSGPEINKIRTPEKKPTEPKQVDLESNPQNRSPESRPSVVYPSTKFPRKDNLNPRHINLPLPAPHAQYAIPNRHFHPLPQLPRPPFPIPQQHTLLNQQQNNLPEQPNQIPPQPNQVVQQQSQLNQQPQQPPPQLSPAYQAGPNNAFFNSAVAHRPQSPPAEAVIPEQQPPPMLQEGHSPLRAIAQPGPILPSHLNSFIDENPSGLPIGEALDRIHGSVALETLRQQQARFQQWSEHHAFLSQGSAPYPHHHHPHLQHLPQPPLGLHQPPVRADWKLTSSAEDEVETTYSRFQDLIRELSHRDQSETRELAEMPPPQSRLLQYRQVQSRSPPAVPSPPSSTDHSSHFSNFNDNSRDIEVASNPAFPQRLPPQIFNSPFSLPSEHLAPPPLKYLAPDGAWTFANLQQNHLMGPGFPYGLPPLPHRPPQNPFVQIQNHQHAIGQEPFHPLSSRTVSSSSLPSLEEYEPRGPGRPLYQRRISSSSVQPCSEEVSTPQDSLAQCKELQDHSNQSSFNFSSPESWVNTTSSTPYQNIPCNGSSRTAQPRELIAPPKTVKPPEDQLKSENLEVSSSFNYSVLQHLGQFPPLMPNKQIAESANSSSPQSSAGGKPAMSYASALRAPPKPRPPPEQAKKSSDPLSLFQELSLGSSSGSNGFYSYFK", "UniProt P14317": "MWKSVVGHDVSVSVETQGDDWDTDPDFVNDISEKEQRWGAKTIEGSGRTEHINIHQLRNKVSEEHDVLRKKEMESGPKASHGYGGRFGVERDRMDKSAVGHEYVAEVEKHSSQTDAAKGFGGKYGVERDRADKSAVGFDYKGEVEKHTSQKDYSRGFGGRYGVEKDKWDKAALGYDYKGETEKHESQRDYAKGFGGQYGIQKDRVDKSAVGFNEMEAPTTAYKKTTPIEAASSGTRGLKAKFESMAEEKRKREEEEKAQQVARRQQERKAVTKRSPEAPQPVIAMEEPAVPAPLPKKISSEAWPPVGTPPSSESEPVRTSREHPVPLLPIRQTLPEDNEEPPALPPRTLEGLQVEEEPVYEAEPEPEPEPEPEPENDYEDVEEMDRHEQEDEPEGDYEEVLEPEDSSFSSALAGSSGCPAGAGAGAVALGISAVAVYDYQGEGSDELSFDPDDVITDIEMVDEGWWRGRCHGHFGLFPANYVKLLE", "UniProt Q6AI08": "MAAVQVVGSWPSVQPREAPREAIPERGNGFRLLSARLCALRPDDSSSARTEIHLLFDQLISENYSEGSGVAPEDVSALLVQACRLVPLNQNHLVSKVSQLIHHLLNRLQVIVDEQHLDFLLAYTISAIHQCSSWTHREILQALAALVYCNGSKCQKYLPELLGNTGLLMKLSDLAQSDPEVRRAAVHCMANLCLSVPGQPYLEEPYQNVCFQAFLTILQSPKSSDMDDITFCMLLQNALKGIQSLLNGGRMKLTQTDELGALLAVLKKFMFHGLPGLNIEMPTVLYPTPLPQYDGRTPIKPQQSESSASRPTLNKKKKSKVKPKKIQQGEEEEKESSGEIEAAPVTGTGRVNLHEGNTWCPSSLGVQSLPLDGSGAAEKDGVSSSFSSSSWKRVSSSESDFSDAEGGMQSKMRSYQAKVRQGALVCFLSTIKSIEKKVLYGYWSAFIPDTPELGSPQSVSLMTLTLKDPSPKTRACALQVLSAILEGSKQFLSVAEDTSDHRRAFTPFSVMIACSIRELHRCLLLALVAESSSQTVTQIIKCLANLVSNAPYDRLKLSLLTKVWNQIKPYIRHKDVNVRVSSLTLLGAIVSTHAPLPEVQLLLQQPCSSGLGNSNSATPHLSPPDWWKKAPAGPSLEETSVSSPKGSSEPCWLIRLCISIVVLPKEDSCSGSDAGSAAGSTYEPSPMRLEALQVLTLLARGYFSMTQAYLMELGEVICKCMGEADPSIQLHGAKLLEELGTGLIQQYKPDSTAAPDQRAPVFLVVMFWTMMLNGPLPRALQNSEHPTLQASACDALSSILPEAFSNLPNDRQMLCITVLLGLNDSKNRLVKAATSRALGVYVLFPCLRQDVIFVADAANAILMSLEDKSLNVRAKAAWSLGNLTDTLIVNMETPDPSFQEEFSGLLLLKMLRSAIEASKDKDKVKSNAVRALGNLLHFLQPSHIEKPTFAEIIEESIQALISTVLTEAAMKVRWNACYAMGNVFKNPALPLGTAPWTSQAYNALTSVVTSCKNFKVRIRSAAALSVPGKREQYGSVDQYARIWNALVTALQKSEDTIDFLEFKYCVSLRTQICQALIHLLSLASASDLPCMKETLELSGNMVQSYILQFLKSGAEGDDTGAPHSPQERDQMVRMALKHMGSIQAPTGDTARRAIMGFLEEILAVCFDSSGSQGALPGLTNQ", "UniProt Q9UII4": "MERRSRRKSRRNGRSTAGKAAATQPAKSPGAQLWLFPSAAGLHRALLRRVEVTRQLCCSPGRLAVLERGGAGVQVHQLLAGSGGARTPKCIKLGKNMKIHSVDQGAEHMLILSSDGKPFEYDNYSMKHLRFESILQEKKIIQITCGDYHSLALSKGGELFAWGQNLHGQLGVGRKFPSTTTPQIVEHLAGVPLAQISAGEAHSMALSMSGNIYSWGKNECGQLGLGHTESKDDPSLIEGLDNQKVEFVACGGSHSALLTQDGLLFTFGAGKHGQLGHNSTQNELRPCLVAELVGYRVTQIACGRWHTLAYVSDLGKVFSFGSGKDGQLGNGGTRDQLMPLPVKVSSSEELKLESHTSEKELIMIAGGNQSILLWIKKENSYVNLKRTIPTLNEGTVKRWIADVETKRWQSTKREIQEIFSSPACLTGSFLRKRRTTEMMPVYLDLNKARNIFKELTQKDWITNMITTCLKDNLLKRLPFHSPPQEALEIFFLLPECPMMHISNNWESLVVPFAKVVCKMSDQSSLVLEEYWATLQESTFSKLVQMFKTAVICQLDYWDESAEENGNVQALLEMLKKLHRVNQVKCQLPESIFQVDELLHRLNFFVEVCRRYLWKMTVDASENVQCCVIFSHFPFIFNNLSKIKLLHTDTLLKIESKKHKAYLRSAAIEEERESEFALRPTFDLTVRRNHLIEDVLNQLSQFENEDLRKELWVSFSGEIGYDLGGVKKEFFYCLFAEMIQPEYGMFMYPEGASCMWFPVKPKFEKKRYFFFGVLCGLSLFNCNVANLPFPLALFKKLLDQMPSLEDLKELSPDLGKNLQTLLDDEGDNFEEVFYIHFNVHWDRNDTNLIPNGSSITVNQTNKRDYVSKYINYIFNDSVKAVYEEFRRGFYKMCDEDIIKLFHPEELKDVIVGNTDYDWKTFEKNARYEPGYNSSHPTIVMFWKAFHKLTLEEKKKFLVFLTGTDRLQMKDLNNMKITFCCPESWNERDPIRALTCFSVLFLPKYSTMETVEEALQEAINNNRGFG", "UniProt Q7Z4H7": "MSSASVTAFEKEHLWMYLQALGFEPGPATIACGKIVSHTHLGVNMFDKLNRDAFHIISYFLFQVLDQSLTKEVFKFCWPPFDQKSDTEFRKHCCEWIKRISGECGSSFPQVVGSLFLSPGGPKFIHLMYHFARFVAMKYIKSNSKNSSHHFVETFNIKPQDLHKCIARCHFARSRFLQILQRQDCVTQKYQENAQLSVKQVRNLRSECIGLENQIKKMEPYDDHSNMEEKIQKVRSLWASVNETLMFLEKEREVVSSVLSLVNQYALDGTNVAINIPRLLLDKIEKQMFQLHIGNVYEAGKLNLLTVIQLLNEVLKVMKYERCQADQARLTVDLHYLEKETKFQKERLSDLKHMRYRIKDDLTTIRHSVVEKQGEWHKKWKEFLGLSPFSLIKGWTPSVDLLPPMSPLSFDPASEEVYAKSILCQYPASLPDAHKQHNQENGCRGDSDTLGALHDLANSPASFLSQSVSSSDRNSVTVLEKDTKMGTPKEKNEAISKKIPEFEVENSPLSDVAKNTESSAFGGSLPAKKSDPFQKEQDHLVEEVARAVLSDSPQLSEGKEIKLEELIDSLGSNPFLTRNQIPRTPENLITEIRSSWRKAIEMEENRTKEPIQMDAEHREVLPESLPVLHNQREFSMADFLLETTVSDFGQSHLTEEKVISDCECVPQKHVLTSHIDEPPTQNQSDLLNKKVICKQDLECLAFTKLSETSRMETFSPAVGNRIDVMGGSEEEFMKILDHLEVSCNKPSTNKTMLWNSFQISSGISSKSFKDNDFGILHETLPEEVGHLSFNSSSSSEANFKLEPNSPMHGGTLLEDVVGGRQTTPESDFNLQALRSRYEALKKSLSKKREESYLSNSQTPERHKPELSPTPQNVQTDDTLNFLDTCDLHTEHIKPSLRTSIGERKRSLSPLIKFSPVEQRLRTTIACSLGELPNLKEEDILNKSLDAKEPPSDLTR"},
  "source": "the supplement of paper PMC12067093",
  "about": "“Discovery and optimisation of a covalent ligand for TRIM25 and its application to targeted protein ubiquitination” (Chemical Science, 2025)",
  "compound": "CC1Cc2ccccc2N1C(=O)C1CCCN(C1)C(=O)CCl (mixture of isomers) [TRIM25 ligand 11 (diastereomer mixture)]",
  "test": "probe-labelled cysteine peptide fold change vs DMSO (competition) (log2 fold change); higher = less target engagement (more negative = stronger competition)",
  "conditions": "THP-1, incubation time: 4 h",
  "note": "The other results are listed elsewhere or left out.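 Also: competitive chemoproteomic profiling in live THP-1 cells with an iodoacetamide desthiobiotin (IA-DTB) probe, comparing probe-labelled peptide intensities in compound-treated cells against DMSO-treated controls.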",
  "data": [
    {"target": "HBS1L_Q9Y450_84_LYSCLDHMR (UniProt Q9Y450)", "values": [
      {"measurement": "probe-labelled cysteine peptide fold change", "setting": "10 µM", "value": -0.105},
      {"measurement": "probe-labelled cysteine peptide fold change", "setting": "50 µM", "value": -0.228}
    ]},
    {"target": "HELZ_P42694_100_AVLCCMQLK (UniProt P42694)", "values": [
      {"measurement": "probe-labelled cysteine peptide fold change", "setting": "10 µM", "value": -0.0761},
      {"measurement": "probe-labelled cysteine peptide fold change", "setting": "50 µM", "value": -0.157}
    ]},
    {"target": "HCLS1_P14317_470_CHGHFGLFPANYVK (UniProt P14317)", "values": [
      {"measurement": "probe-labelled cysteine peptide fold change", "setting": "10 µM", "value": -0.0772},
      {"measurement": "probe-labelled cysteine peptide fold change", "setting": "50 µM", "value": -0.158}
    ]},
    {"target": "HLTF_Q14527_896_RVESIQCFQNTEAGSPTIMLLSLK (UniProt Q14527)", "values": [
      {"measurement": "probe-labelled cysteine peptide fold change", "setting": "10 µM", "value": "-3.58e-05"},
      {"measurement": "probe-labelled cysteine peptide fold change", "setting": "50 µM", "value": 0.0148}
    ]},
    {"target": "HDAC3_O15379_59_MIVFKPYQASQHDMCR (UniProt O15379)", "values": [
      {"measurement": "probe-labelled cysteine peptide fold change", "setting": "10 µM", "value": -0.135},
      {"measurement": "probe-labelled cysteine peptide fold change", "setting": "50 µM", "value": -0.144}
    ]},
    {"target": "HK1_P19367_834_AAQLCGAGMAAVVDK (UniProt P19367)", "values": [
      {"measurement": "probe-labelled cysteine peptide fold change", "setting": "10 µM", "value": 0.0124},
      {"measurement": "probe-labelled cysteine peptide fold change", "setting": "50 µM", "value": 0.0763}
    ]},
    {"target": "HDLBP_Q00341_948_CDIIIISGR (UniProt Q00341)", "values": [
      {"measurement": "probe-labelled cysteine peptide fold change", "setting": "10 µM", "value": -0.00247},
      {"measurement": "probe-labelled cysteine peptide fold change", "setting": "50 µM", "value": 0.215}
    ]},
    {"target": "HEATR6_Q6AI08_846_ALGVYVLFPCLR (UniProt Q6AI08)", "values": [
      {"measurement": "probe-labelled cysteine peptide fold change", "setting": "10 µM", "value": -0.322},
      {"measurement": "probe-labelled cysteine peptide fold change", "setting": "50 µM", "value": -0.0918}
    ]},
    {"target": "HIBADH_P31937_75_HGYPLIIYDVFPDACK (UniProt P31937)", "values": [
      {"measurement": "probe-labelled cysteine peptide fold change", "setting": "10 µM", "value": -0.0498},
      {"measurement": "probe-labelled cysteine peptide fold change", "setting": "50 µM", "value": -0.35}
    ]},
    {"target": "HERC5_Q9UII4_892_MCDEDIIK (UniProt Q9UII4)", "values": [
      {"measurement": "probe-labelled cysteine peptide fold change", "setting": "10 µM", "value": 0.0127},
      {"measurement": "probe-labelled cysteine peptide fold change", "setting": "50 µM", "value": -0.0691}
    ]},
    {"target": "HAUS6_Q7Z4H7_185_QDCVTQK (UniProt Q7Z4H7)", "values": [
      {"measurement": "probe-labelled cysteine peptide fold change", "setting": "10 µM", "value": 0.0137},
      {"measurement": "probe-labelled cysteine peptide fold change", "setting": "50 µM", "value": 0.127}
    ]},
    {"target": "HECTD1_Q9ULT8_316_CVLDTMR (UniProt Q9ULT8)", "values": [
      {"measurement": "probe-labelled cysteine peptide fold change", "setting": "10 µM", "value": 0.0375},
      {"measurement": "probe-labelled cysteine peptide fold change", "setting": "50 µM", "value": -0.0646}
    ]},
    {"target": "HELZ_P42694_696_ILICTHSNSAADLYIK (UniProt P42694)", "values": [
      {"measurement": "probe-labelled cysteine peptide fold change", "setting": "10 µM", "value": 0.153},
      {"measurement": "probe-labelled cysteine peptide fold change", "setting": "50 µM", "value": 0.287}
    ]},
    {"target": "HDAC10_Q969S8_145_AAANGFCVFNNVAIAAAHAK (UniProt Q969S8)", "values": [
      {"measurement": "probe-labelled cysteine peptide fold change", "setting": "10 µM", "value": -0.0235},
      {"measurement": "probe-labelled cysteine peptide fold change", "setting": "50 µM", "value": -0.0112}
    ]},
    {"target": "HK3_P52790_634_ASDCEGQDVVSLLR (UniProt P52790)", "values": [
      {"measurement": "probe-labelled cysteine peptide fold change", "setting": "10 µM", "value": 0.0738},
      {"measurement": "probe-labelled cysteine peptide fold change", "setting": "50 µM", "value": 0.0237}
    ]}
  ]
}
